# ± gives the standard deviation of the averaged measurements. The entries are a selection whose mix differs from that of the whole data set. Most values lie at the level of the controls, where differences are scatter.
# By UniProt entry, the sequences of proteins in these tests, tags left out. Where a name states a change or a piece, a line headed by the entry shows the natural chain unless it says otherwise.
# UniProt O14593: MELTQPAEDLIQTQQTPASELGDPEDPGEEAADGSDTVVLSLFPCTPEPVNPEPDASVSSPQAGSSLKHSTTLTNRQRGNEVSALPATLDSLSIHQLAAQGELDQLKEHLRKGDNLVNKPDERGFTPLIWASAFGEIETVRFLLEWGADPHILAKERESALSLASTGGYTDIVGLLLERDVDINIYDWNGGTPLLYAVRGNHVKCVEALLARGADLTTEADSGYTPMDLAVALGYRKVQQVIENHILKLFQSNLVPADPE
# UniProt O14974: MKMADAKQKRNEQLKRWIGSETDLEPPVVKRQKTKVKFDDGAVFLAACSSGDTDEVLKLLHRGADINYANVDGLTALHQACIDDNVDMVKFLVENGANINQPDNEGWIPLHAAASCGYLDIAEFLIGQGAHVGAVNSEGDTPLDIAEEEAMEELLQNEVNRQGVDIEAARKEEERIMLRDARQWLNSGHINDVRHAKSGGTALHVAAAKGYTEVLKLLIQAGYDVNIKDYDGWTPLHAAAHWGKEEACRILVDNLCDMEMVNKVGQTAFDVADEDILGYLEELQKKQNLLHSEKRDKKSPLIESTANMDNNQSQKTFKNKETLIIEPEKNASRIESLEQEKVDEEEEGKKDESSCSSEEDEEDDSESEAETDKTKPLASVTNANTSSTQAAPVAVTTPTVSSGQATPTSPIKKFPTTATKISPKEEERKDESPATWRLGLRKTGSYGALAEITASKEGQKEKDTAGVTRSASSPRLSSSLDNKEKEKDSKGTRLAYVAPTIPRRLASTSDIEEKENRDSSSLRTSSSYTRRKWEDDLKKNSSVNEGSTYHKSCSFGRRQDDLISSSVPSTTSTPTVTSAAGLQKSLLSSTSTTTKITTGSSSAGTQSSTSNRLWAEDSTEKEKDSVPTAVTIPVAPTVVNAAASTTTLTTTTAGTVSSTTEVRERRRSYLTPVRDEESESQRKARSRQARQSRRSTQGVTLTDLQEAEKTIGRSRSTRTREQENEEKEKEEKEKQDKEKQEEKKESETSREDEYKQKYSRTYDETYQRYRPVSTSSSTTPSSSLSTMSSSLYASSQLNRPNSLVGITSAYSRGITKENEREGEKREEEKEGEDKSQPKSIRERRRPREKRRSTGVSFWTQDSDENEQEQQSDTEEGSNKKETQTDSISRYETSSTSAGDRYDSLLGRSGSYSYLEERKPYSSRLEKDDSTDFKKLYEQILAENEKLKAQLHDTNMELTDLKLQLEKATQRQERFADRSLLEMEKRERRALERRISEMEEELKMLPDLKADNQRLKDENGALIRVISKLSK
# UniProt O00308: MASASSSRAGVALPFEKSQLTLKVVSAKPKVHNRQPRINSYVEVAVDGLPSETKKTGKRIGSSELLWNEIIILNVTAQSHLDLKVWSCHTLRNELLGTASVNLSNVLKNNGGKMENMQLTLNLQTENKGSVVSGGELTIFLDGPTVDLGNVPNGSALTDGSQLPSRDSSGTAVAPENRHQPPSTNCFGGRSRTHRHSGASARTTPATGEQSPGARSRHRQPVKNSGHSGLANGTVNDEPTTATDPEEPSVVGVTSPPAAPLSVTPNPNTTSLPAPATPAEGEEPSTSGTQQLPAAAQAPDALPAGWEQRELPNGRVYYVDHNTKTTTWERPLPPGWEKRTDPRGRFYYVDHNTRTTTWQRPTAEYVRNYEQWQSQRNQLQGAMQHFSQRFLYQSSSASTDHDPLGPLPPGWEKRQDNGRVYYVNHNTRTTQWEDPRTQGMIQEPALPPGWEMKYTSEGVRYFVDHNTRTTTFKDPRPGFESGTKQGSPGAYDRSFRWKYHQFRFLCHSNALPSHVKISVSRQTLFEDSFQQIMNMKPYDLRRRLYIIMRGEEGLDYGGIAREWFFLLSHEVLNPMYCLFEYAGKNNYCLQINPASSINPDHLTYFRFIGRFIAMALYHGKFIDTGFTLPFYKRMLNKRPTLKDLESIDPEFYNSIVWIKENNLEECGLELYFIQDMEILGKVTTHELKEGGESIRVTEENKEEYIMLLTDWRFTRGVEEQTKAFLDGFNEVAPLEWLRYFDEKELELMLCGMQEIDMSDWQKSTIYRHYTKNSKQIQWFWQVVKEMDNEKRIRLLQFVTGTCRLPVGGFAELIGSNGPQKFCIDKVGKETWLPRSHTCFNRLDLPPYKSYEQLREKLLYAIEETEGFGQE
# UniProt O43829: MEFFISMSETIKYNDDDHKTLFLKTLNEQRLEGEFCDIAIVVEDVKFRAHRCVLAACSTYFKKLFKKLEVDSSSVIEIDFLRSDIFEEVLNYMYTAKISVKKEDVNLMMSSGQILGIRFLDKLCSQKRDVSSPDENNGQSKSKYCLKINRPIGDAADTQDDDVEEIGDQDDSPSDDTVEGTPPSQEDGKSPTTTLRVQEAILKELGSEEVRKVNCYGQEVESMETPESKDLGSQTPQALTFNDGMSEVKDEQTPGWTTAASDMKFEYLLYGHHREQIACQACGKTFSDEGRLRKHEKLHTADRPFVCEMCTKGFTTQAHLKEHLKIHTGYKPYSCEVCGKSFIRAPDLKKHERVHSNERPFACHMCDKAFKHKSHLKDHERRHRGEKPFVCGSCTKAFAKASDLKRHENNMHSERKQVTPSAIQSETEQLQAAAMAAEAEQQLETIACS
# UniProt O14737: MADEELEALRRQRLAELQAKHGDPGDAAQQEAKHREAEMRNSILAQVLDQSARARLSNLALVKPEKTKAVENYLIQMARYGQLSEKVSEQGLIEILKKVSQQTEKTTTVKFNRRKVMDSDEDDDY
# UniProt O15305: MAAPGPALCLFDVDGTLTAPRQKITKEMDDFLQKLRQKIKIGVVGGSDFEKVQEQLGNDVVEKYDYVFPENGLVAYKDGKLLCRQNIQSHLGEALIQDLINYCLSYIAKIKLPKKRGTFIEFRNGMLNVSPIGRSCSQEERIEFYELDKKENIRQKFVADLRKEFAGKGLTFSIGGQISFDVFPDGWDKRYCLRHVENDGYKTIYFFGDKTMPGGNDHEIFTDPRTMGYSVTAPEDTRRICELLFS
# UniProt O00291: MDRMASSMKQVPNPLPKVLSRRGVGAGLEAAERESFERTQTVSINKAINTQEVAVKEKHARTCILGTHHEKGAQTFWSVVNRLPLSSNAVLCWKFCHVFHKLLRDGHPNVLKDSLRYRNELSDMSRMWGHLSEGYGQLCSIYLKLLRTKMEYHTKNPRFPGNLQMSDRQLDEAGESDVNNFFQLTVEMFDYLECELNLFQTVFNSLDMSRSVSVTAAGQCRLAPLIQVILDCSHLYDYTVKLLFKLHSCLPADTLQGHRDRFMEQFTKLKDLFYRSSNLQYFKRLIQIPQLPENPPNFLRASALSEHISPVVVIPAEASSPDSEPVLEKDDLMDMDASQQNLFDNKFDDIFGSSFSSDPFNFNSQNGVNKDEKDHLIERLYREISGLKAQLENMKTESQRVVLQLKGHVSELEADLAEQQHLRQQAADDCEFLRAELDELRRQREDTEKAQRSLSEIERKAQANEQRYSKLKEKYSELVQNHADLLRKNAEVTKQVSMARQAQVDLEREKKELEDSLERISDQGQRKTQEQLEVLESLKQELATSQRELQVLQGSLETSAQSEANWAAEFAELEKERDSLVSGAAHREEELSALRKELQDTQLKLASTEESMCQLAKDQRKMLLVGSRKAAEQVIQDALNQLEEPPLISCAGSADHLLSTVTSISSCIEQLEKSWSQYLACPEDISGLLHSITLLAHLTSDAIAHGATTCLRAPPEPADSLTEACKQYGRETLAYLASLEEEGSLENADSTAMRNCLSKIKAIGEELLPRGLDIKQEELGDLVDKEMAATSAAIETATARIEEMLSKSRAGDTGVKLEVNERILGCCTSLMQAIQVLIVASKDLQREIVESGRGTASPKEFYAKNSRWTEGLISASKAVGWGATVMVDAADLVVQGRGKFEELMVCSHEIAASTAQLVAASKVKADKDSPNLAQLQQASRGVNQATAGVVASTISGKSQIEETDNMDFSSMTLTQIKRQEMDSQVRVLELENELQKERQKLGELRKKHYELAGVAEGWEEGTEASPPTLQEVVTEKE
# UniProt O14639: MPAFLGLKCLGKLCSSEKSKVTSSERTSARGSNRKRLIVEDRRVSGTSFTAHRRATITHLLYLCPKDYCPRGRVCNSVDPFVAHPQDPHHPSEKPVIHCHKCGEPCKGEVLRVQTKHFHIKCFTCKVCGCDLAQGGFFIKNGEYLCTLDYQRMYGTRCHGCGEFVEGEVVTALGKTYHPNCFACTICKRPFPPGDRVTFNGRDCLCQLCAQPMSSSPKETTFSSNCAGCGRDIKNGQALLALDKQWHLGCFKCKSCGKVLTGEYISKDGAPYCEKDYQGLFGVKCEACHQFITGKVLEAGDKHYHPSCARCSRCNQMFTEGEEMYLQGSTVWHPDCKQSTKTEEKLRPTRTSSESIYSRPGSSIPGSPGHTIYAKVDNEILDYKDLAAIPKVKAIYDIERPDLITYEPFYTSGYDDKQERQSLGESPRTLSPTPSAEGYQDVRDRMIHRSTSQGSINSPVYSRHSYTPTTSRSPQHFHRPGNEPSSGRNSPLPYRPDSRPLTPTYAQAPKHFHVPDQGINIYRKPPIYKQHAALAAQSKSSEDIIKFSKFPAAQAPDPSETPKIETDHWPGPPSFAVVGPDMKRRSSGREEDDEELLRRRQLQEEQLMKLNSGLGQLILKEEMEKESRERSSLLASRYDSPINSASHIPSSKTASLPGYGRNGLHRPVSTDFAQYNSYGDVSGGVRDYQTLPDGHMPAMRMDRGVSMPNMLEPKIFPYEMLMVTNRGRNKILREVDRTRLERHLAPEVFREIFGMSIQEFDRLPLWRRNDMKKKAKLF
# UniProt O15160, whole entry: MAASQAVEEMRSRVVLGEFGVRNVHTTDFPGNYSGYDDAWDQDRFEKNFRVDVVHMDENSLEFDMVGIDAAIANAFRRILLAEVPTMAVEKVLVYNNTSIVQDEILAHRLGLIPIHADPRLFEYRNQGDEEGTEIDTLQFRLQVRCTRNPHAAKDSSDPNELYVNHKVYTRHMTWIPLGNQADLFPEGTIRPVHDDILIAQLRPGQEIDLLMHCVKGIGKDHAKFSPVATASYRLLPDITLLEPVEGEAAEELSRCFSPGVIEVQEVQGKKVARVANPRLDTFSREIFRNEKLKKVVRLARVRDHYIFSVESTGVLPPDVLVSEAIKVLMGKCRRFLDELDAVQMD
# UniProt O43505: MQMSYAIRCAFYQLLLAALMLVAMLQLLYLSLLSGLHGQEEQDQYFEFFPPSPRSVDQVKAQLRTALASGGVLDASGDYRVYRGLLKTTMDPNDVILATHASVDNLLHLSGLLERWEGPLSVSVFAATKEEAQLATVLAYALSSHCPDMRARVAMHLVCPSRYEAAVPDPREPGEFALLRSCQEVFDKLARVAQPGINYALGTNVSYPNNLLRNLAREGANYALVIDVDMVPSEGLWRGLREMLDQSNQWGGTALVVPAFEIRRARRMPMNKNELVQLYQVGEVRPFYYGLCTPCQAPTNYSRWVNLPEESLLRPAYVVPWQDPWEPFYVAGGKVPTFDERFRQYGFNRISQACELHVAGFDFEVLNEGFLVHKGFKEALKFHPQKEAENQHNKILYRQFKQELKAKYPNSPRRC
# UniProt O15381: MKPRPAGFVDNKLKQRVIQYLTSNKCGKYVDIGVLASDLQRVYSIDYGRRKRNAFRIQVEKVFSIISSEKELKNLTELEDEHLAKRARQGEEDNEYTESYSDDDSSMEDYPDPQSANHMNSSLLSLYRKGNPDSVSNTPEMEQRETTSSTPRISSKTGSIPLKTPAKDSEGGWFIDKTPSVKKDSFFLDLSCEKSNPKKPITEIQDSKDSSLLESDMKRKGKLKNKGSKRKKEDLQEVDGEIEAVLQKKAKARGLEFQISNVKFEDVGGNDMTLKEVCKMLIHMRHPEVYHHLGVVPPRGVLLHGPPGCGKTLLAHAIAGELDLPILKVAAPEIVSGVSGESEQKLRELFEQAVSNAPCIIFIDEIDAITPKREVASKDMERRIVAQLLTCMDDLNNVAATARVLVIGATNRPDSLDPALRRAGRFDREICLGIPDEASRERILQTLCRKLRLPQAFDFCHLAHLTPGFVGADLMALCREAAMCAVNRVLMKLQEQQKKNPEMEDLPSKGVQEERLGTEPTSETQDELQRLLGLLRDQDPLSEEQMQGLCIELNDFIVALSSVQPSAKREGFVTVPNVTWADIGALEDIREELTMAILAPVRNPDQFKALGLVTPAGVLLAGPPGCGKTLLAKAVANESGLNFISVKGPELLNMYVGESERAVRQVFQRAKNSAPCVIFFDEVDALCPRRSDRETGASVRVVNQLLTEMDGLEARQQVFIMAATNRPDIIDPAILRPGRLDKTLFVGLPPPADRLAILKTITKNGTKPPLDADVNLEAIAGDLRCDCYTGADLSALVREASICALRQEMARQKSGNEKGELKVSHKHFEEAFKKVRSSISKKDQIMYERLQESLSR
# UniProt O14907: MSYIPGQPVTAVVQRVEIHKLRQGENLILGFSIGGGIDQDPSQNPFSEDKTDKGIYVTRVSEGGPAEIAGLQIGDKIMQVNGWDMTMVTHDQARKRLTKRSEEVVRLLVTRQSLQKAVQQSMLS
# Compound: Nc1ncnc2c1ncn2[C@@H]1O[C@H](COP(=O)(O)OP(=O)(O)OP(=O)(O)O)[C@@H](O)[C@H]1O [adenosine triphosphate]
# Assay: NP40-soluble protein abundance relative to vehicle (solubility fold change) (ratio); higher = more soluble protein in presence of ATP
# Settings: concentration: 0.1mM
# Method in brief: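 Crude Jurkat lysate, prepared by Dounce homogenisation, was exposed to eight concentrations from 0.1 to 10 mM for 10 min at room temperature and then 3 min at 37 °C. Solubilisation used 0.8% NP40 with benzonase for 60 min at 4 °C, followed by ultracentrifugation and TMT labelling of the supernatant for LC-MS/MS. After vsn normalisation of intensities, each value is the fold change against the detergent-processed vehicle within each replicate, across three independent experiments.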
row,Target,NP40-soluble protein abundance
1,ARPC1B (UniProt O15143),0.99 ± 0.049
2,PIK3C2A (UniProt O00443),0.901 ± 0.1
3,SGTA (UniProt O43765),0.835 ± 0.15
4,UniProt O14593 and related entries,1.02 ± 0.064
5,UniProt O14974 and related entries,0.95 ± 0.034
6,UniProt O00308 and related entries,1.04 ± 0.087
7,UniProt O43829,1.02 ± 0.026
8,UniProt O15151 and related entries,1.28 ± 0.29
9,PDCD5 (UniProt O14737),0.884 ± 0.089
10,PMM2 (UniProt O15305),1.05 ± 0.068
11,HIP1 (UniProt O00291),1.02 ± 0.038
12,ARPC2 (UniProt O15144),1.05 ± 0.097
13,TOR1B (UniProt O14657),0.994 ± 0.069
14,UniProt O14639 and related entries,0.977 ± 0.02
15,STXBP3 (UniProt O00186),1.05 ± 0.06
16,POLR1C (UniProt O15160),1.06 ± 0.061
17,B4GAT1 (UniProt O43505),1.07 ± 0.059
18,SPTBN2 (UniProt O15020),0.964 ± 0.018
19,NDUFS4 (UniProt O43181),0.963 ± 0.066

row,Target,NP40-soluble protein abundance
1,M0R2Z9 and related entries (UniProt Q8IX01),0.965 ± 0.07
2,UniProt O43295 and related entries,0.968 ± 0.096
3,UniProt O14775-2|O14775-3,0.917 ± 0.031
4,RAD51C (UniProt O43502),1.05 ± 0.11
5,UniProt O14773 and related entries,0.912 ± 0.02
6,UniProt O15042 and related entries,1.03 ± 0.049
7,UniProt O43422,1.04 ± 0.11
8,UniProt O43665 and related entries,0.906 ± 0.13
9,NVL (UniProt O15381),1.08 ± 0.065
10,SART1 (UniProt O43290),1.02 ± 0.041
11,TAX1BP3 (UniProt O14907),0.961 ± 0.046
12,M0R3D4 and related entries (UniProt Q9UI14),1.07 ± 0.051
13,UniProt O15091,0.997 ± 0.025
14,YKT6 (UniProt O15498),1.01 ± 0.056
15,NCK2 (UniProt O43639),1.02 ± 0.021
16,UniProt O15446 and related entries,0.872 ± 0.032
17,PAPSS1 (UniProt O43252),1.04 ± 0.051
18,UniProt O43684 and related entries,1.06 ± 0.062

# Same assay, conditions: concentration: 0.5mM
row,Target,NP40-soluble protein abundance
1,ARPC1B (UniProt O15143),1.01 ± 0.028
2,PIK3C2A (UniProt O00443),0.931 ± 0.16
3,SGTA (UniProt O43765),0.829 ± 0.2
4,UniProt O14593 and related entries,0.967 ± 0.1
5,UniProt O14974 and related entries,1.01 ± 0.071
6,UniProt O00308 and related entries,1.02 ± 0.15
7,UniProt O43829,1.07 ± 0.029
8,UniProt O15151 and related entries,1.12 ± 0.091
9,PDCD5 (UniProt O14737),0.831 ± 0.076
10,PMM2 (UniProt O15305),1.05 ± 0.078
11,HIP1 (UniProt O00291),1.02 ± 0.015
12,ARPC2 (UniProt O15144),1.06 ± 0.099
13,TOR1B (UniProt O14657),1 ± 0.081
14,UniProt O14639 and related entries,1.07 ± 0.045
15,STXBP3 (UniProt O00186),1.04 ± 0.054
16,POLR1C (UniProt O15160),1.03 ± 0.043
17,B4GAT1 (UniProt O43505),1.04 ± 0.096
18,SPTBN2 (UniProt O15020),0.961 ± 0.034
19,NDUFS4 (UniProt O43181),0.983 ± 0.069

row,Target,NP40-soluble protein abundance
1,M0R2Z9 and related entries (UniProt Q8IX01),1.05 ± 0.073
2,UniProt O43295 and related entries,1.03 ± 0.077
3,UniProt O14775-2|O14775-3,0.902 ± 0.015
4,RAD51C (UniProt O43502),1.03 ± 0.083
5,UniProt O14773 and related entries,0.889 ± 0.045
6,UniProt O15042 and related entries,1.11 ± 0.075
7,UniProt O43422,1 ± 0.12
8,UniProt O43665 and related entries,0.872 ± 0.16
9,NVL (UniProt O15381),1.21 ± 0.076
10,SART1 (UniProt O43290),1.18 ± 0.05
11,TAX1BP3 (UniProt O14907),0.967 ± 0.021
12,M0R3D4 and related entries (UniProt Q9UI14),0.958 ± 0.028
13,UniProt O15091,1.01 ± 0.046
14,YKT6 (UniProt O15498),1.02 ± 0.071
15,NCK2 (UniProt O43639),0.993 ± 0.031
16,UniProt O15446 and related entries,0.902 ± 0.027
17,PAPSS1 (UniProt O43252),1.03 ± 0.043
18,UniProt O43684 and related entries,1.11 ± 0.027

# Reference: the supplement of paper PMC6411743
